In data set [1] the test system is P. falciparum (NF 54 strain) hepatic stages. Nature of the data set: In vitro assay for P. falciparum liver stage inhibition in primary human hepatocytes. It is filed as cell-based. Particulars: TC50 on human primary hepatocytes versus IC50. On the procedure:
P. yoelii (265 BY strain) and P. falciparum (NF 54 strain) sporozoites were obtained by dissection of infected Anopheles stephensi salivary glands. Primary mouse hepatocytes were isolated as previously described and seeded in eight-well Lab-Tek plastic chamber slides (VWR, Fontenay-sous-Bois, France) previously coated with rat-tail collagen I (BD Biosciences, Le Pont de Claix, France) at a density of 10^5 cells per well. Mouse hepatocytes were cultured at 37 °C in 5% CO2 in William's E medium supplemented with 10% fetal calf serum, 1% L-glutamine, 1% sodium pyruvate, 1% insulin-transferrin-selenium, 1% nonessential amino acids, and 1% penicillin-streptomycin (all from Invitrogen, Cergy-Pontoise, France), for 24 h before inoculation of P. yoelii sporozoites (10^5 per well). Human liver fragments were collected following informed consent provided from patients undergoing a partial hepatectomy. The collection and use of these tissues were undertaken in accordance with French Government ethical regulations. Primary human hepatocytes were isolated from the healthy parts of these liver biopsies as previously described. […] Parasites were quantified on the last day of incubation. For the in vitro timing experiments, tazopsine treatment of P. yoelii and P. falciparum cultures was undertaken for different periods during the cultivation: 0 h to 3 h, 3 h to 24 h, or 24 h to 48 h after P. yoelii sporozoite inoculation (quantification at 48 h), or 0 h to 2 d, or 3 d to 5 d after P. falciparum sporozoite inoculation (quantification at 5 d). […] Parasite numbers were counted under a fluorescence microscope with a 25× light microscope objective. […]
(§1) IC50 and TC50 were calculated by nonlinear regression using four-parameter logistic curves on the SigmaPlot 10.0 software (http://www.systat.com). Each IC50 or TC50 is expressed as a mean between two independent experiments, followed by the standard error of the mean.

Data set [2] has as its system P. yoelii (265 BY strain) hepatic stages. Nature of the data set: In vitro assay for P. yoelii liver stage inhibition in primary mouse hepatocytes. It is filed as cell-based. Particulars: TC50 on mouse primary hepatocytes versus IC50. On the procedure: P. yoelii (265 BY strain) and P. falciparum (NF 54 strain) sporozoites were obtained by dissection of infected Anopheles stephensi salivary glands. Primary mouse hepatocytes were isolated as previously described and seeded in eight-well Lab-Tek plastic chamber slides (VWR, Fontenay-sous-Bois, France) previously coated with rat-tail collagen I (BD Biosciences, Le Pont de Claix, France) at a density of 10^5 cells per well. Mouse hepatocytes were cultured at 37 °C in 5% CO2 in William's E medium supplemented with 10% fetal calf serum, 1% L-glutamine, 1% sodium pyruvate, 1% insulin-transferrin-selenium, 1% nonessential amino acids, and 1% penicillin-streptomycin (all from Invitrogen, Cergy-Pontoise, France), for 24 h before inoculation of P. yoelii sporozoites (10^5 per well). Human liver fragments were collected following informed consent provided from patients undergoing a partial hepatectomy. The collection and use of these tissues were undertaken in accordance with French Government ethical regulations. Primary human hepatocytes were isolated from the healthy parts of these liver biopsies as previously described. […] Parasites were quantified on the last day of incubation. For the in vitro timing experiments, tazopsine treatment of P. yoelii and P. falciparum cultures was undertaken for different periods during the cultivation: 0 h to 3 h, 3 h to 24 h, or 24 h to 48 h after P. yoelii sporozoite inoculation (quantification at 48 h), or 0 h to 2 d, or 3 d to 5 d after P. falciparum sporozoite inoculation (quantification at 5 d). […] Parasite numbers were counted under a fluorescence microscope with a 25× light microscope objective.
as §1

Turning to `COC1=C2[C@@H]3[C@H](O)c4ccc(OC)c(O)c4[C@]2(CCN3C2CCCC2)C[C@H](O)[C@@H]1O` [NCP-tazopsine, N-cyclopentyl-tazopsine], the “TI (therapeutic index)” value in data set [1] amounted to 60; in data set [2], 46.
For `COc1cc(NC(C)CCCN)c2ncccc2c1` (stereo not drawn) [Primaquine, reference compound], in that order: 81 and 110.
Taken in the same sequence, the figures for `COC1=C2[C@H]3NCC[C@]2(C[C@H](O)[C@@H]1O)c1c(ccc(OC)c1O)[C@H]3O` [Tazopsine, tazopsine] were 7 and 14.
